Experimental findings from patent US6953832B2, “Dental materials based on polyfunctional amides” (Ivoclar Vivadent AG, priority 2001, dated 2005) are described below.

Molecules are shown by their SMILES.

The data set is described as follows: Radical polymerization, gel time. The format is physicochemical. The following applies: for Gel time: 30% monomer, 20% water, 49% ethanol, 1% 2,2′-azobis-(2-methylpropionamidine)-dihydrochloride, 65° C., time until a three-dimensional stable gel formed.

`C=CC(=O)NCCNC(=O)C=C` [Example 1, ethylene bisacrylamide] registered a Gel time of 1 min. Moreover, the “Reactivity (polymerizability) compared with glycerine dimethacrylate” value (judged by gel time) is recorded as “clearly more reactive”. Take `C=C(C)C(=O)NCCOC(=O)NCCCCCCNC(=O)OCCNC(=O)C(=C)C` [Example 3, bis[2-(2-methyl-acrylamino)-ethoxycarbonyl]-hexamethylenediamine]: the Gel time is 6 min. Consider `C=C(C)C(=O)NCCC(C)CC(C)(C)CNC(=O)C(=C)C` (stereo not shown) [Example 5, 2,2,4-trimethylhexamethylene-1,6-bismethacrylamide], for which the Gel time was 7 min.
